From article PMC10687025
Results are given in words; binding and its absence hold for the method and conditions named. Binding seen in cells or lysates may run through a third protein. Some entries that bind do so weakly or less than the wild type. Where a sequence is shown, tags or fusion partners need not be part of it.

Legend:
[1] = target: T1, VPS36 precipitated with HA beads (Fig. 4c) (UniProt Q86VN1); test: co-IP; lysates of transfected HeLa cells, HA beads; blots with anti-HA and anti-Arl4A
T1 sequence: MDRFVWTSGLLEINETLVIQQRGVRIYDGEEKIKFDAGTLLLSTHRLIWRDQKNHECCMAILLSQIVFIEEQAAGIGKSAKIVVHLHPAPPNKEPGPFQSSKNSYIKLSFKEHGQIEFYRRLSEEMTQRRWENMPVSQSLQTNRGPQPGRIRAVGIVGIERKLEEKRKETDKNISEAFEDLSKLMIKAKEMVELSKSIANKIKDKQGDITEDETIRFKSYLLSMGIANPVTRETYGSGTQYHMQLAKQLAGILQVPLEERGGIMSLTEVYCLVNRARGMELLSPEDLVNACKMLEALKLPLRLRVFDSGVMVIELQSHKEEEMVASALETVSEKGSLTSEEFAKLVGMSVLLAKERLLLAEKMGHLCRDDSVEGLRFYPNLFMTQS

VPS36-WT-Myc = target: T2, VPS36-WT-Myc (UniProt Q86VN1); test: co-IP; lysates of transfected HeLa cells, Myc-Trap beads; blots with anti-Myc and anti-Arl4A; with and without EGF treatment (Fig. 5c)
T2 sequence: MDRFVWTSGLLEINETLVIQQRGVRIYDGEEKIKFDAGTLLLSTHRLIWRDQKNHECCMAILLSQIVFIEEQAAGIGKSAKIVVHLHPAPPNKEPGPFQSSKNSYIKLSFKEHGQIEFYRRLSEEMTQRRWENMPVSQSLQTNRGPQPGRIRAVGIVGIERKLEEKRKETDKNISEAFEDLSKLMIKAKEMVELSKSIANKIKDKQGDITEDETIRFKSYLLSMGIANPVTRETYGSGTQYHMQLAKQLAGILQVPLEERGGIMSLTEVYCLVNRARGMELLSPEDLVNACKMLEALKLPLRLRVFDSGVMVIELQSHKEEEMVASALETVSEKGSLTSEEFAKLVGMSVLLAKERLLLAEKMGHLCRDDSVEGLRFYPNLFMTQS

CHMP6 = target: T3, CHMP6 (UniProt Q96FZ7); test: co-IP; Supplemental Fig. 16; as for CHMP2A (Fig. 8b, c), details not shown
T3 sequence: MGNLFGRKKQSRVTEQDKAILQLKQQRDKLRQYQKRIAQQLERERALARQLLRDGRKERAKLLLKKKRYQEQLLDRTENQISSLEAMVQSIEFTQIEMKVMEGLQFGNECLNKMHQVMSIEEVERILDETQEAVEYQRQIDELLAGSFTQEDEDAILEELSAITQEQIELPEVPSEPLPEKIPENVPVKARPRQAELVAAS

GFP-CHMP2A = target: T4, GFP-CHMP2A (UniProt O43633); test: co-IP; transfected HeLa cells treated with 1 mM DSP cross-linker, quenched with Tris-HCl, lysed, GFP-Trap; blots with anti-Myc and anti-GFP; also in Arl4A-knockdown cells (Fig. 8c)
T4 sequence: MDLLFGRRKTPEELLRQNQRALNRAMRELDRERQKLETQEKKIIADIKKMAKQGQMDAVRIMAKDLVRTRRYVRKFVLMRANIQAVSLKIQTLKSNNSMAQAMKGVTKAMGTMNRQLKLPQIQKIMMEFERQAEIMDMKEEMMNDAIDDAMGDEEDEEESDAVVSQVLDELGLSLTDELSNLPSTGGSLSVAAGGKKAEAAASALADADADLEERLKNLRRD

AMSH-HA = target: T5, AMSH-HA (UniProt O95630); test: co-IP; lysates of transfected 293T cells, HA beads; blots with anti-HA, anti-mCherry and anti-Arl4A; with and without Arl4A overexpression
T5 sequence: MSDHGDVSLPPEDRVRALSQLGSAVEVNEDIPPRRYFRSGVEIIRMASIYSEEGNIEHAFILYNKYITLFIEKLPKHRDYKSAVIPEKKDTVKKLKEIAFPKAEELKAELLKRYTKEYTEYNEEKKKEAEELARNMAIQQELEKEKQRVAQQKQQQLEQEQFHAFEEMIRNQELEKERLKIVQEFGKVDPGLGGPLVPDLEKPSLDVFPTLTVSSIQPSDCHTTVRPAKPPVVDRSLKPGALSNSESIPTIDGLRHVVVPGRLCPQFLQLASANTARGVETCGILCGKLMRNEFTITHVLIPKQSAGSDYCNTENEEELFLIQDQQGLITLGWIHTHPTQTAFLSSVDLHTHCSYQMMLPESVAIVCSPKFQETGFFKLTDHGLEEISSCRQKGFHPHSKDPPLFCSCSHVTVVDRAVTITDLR

USP8-HA = target: T6, USP8-HA (UniProt P40818); test: as above
T6 sequence: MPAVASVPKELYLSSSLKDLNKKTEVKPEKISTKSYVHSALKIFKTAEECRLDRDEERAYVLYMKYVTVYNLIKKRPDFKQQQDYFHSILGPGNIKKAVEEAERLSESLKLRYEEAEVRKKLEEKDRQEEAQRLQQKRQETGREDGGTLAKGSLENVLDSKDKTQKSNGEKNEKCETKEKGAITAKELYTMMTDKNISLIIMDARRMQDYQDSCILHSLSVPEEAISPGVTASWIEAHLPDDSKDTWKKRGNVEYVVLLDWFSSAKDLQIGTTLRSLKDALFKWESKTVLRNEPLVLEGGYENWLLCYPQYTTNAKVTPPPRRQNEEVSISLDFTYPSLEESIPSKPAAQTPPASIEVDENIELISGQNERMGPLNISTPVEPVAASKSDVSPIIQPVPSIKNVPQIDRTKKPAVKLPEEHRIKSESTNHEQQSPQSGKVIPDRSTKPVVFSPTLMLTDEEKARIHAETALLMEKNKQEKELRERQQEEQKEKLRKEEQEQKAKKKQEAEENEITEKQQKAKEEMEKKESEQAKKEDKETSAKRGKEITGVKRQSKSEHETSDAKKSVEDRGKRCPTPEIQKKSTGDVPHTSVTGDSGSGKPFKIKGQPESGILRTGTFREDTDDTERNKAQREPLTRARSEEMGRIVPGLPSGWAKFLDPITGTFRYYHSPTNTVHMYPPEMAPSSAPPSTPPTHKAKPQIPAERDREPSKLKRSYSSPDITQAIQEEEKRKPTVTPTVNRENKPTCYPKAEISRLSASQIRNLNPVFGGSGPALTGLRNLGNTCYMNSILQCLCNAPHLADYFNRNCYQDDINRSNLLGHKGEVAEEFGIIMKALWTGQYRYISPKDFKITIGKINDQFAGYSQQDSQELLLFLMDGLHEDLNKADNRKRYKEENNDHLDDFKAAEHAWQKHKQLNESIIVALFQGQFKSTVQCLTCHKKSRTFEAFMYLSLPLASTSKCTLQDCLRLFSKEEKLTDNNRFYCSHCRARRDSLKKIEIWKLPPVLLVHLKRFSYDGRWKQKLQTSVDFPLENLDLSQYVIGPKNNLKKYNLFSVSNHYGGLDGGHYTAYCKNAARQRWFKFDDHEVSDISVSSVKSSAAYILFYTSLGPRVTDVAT

B1: untagged Arl4A Q79L (pSG5) (protein, UniProt P40617 1-200)
chain: MGNGLSDQTSILSNLPSFQSFHIVILGLDCAGKTTVLYRLQFNEFVNTVPTKGFNTEKIKVTLGNSKTVTFHFWDVGGLEKLRPLWKSYTRCTDGIVFVVDSVDVERMEEAKTELHKITRISENQGVPVLIVANKQDLRNSLSLSEIEKLLAMGELSSSTPWHLQPTCAIIGDGLKEGLEKLHDMIIKRRKMLRQQKKKR
- binding [1]: binds

B2: untagged Arl4A T51N (pSG5) (protein, UniProt P40617 1-200)
chain: MGNGLSDQTSILSNLPSFQSFHIVILGLDCAGKTTVLYRLQFNEFVNTVPNKGFNTEKIKVTLGNSKTVTFHFWDVGGQEKLRPLWKSYTRCTDGIVFVVDSVDVERMEEAKTELHKITRISENQGVPVLIVANKQDLRNSLSLSEIEKLLAMGELSSSTPWHLQPTCAIIGDGLKEGLEKLHDMIIKRRKMLRQQKKKR
- binding [1]: binds

B3: untagged Arl4A WT (pSG5) (protein, UniProt P40617 1-200)
chain: MGNGLSDQTSILSNLPSFQSFHIVILGLDCAGKTTVLYRLQFNEFVNTVPTKGFNTEKIKVTLGNSKTVTFHFWDVGGQEKLRPLWKSYTRCTDGIVFVVDSVDVERMEEAKTELHKITRISENQGVPVLIVANKQDLRNSLSLSEIEKLLAMGELSSSTPWHLQPTCAIIGDGLKEGLEKLHDMIIKRRKMLRQQKKKR
- binding [1]: binds
- binding (VPS36-WT-Myc): binds

B4: VPS36-WT-Myc (protein, UniProt Q86VN1 1-386)
chain: MDRFVWTSGLLEINETLVIQQRGVRIYDGEEKIKFDAGTLLLSTHRLIWRDQKNHECCMAILLSQIVFIEEQAAGIGKSAKIVVHLHPAPPNKEPGPFQSSKNSYIKLSFKEHGQIEFYRRLSEEMTQRRWENMPVSQSLQTNRGPQPGRIRAVGIVGIERKLEEKRKETDKNISEAFEDLSKLMIKAKEMVELSKSIANKIKDKQGDITEDETIRFKSYLLSMGIANPVTRETYGSGTQYHMQLAKQLAGILQVPLEERGGIMSLTEVYCLVNRARGMELLSPEDLVNACKMLEALKLPLRLRVFDSGVMVIELQSHKEEEMVASALETVSEKGSLTSEEFAKLVGMSVLLAKERLLLAEKMGHLCRDDSVEGLRFYPNLFMTQS
- binding (CHMP6): binds
- binding (GFP-CHMP2A): binds

B5: CHMP2A-mCherry (protein, UniProt O43633 1-222)
chain: MDLLFGRRKTPEELLRQNQRALNRAMRELDRERQKLETQEKKIIADIKKMAKQGQMDAVRIMAKDLVRTRRYVRKFVLMRANIQAVSLKIQTLKSNNSMAQAMKGVTKAMGTMNRQLKLPQIQKIMMEFERQAEIMDMKEEMMNDAIDDAMGDEEDEEESDAVVSQVLDELGLSLTDELSNLPSTGGSLSVAAGGKKAEAAASALADADADLEERLKNLRRD
- binding (AMSH-HA): binds
- binding (USP8-HA): binds
